# Test results from the supplement of paper PMC12889115.
# Some of the results follow. Values are raw readings; no control value is given beside them.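 First-pass screen: polymyxin B was added at a level that permeabilizes the Salmonella outer membrane while sparing the inner membrane. DMSO wells, with and without polymyxin B, defined maximum growth. Because plates differed from one another, each plate's data were ranked separately and the compounds with the lowest OD600 were carried forward as hits.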
# Test system: Salmonella enterica serovar Typhimurium SL1344
# Test: bacterial growth OD600 after 18 h with compound and polymyxin B; higher = more bacterial growth (less inhibition)
# Conditions: 50 µM, Mueller-Hinton broth
Compound,bacterial growth OD600 (polymyxin B 0.75 µg/mL),bacterial growth OD600 (polymyxin B 1 µg/mL)
COc1cc2nc(N(C)C)c(CNCc3ccc(Cl)cc3)cc2c(OC)c1OC,0.77,
O=C1N(Cc2cccc(F)c2F)CCCC1(O)CN1CCSCC1 (configuration not stated),,0.903
O=C(NCCc1cccs1)c1cc(COc2ccc3c(c2)OCO3)[nH]n1,,0.788
COCCCN1C(=O)CC(CC(=O)N2CCC(c3ccccc3Cl)C2)(c2ccccc2OC)C1=O (configuration not stated),0.005,
O=C(CC1CC1)N1CCCC(N2CCN(Cc3ccc4c(c3)OCO4)CC2)C1 (configuration not stated),,0.998
O=C(NC1CC(=O)N(CCCc2ccccc2)C1)c1ccoc1 (configuration not stated),,0.959
Cc1cc(C)n(CC(C)NC(=O)c2oc3c(F)cccc3c2C)n1 (configuration not stated),,0.902
O=C(CN1CCOC1=O)NCc1nc(NCCCc2ccccc2)c2ccccc2n1,0.818,
CN(C)c1cccc(C(=O)N2CCCC(Nc3ccc(F)c(F)c3)C2)c1 (configuration not stated),,0.446
CSCC(=O)N1CCCC(CCc2c(F)cccc2F)C1 (configuration not stated),0.006,
O=C(c1ccco1)N1CCOc2ccc(CN3CCN(c4ccccc4)CC3)cc2C1,0.869,
Cc1cc(C)n(-c2cccc(CN3CC[C@@H](N4CCN(C)CC4)[C@H](O)C3)c2)n1,,0.97
CCOC(=O)CN(C)c1ccc(-c2nc(-c3ccccc3C)no2)cn1,0.712,
CC1(C(=O)NC2CC(=O)N(CCc3cccc(Cl)c3)C2)CC1 (configuration not stated),,0.916
COc1ccc(CCN2CCCC(CN(C)Cc3c(OC)cccc3OC)C2)cc1 (configuration not stated),1,
CCCn1ncc(CN2CCOC(CCc3ccccc3)C2)c1C (configuration not stated),0.975,

# Reformatted with bars between the fields: entries from further up.
Compound | bacterial growth OD600 (polymyxin B 0.75 µg/mL) | bacterial growth OD600 (polymyxin B 1 µg/mL)
O=C(NC1CC(=O)N(CCCc2ccccc2)C1)c1ccoc1 (configuration not stated) |  | 0.959
CCOC(=O)CN(C)c1ccc(-c2nc(-c3ccccc3C)no2)cn1 | 0.712 | 

# Later entries

Compound,bacterial growth OD600 (polymyxin B 0.75 µg/mL),bacterial growth OD600 (polymyxin B 1 µg/mL)
COc1ccc(CN2CCC(CO)(CCCc3ccccc3)CC2)cc1,,0.93
NC(=O)C1CCCN(Cc2ccc3c(c2)CN(Cc2cccn2-c2ccc(Cl)cn2)CCO3)C1 (configuration not stated),0.817,
COc1ccc(C(=O)NC2CC2)c(OC2CCN(Cc3ccccc3F)CC2)c1,,1.01
COC(=O)C1CCCCN1C(=O)c1c(OC)cc(=O)n2c1CCN(Cc1ccc(F)cc1)CC2 (configuration not stated),0.764,
COc1cccc(CNC2CCCc3nc(-c4cccnc4)ncc32)c1 (configuration not stated),,0.777
CCn1ccnc1CN(C)C(=O)c1cc(COc2cccc(C(C)=O)c2)on1,,0.972
CCN(Cc1ccncc1)C(=O)c1cnn(-c2ncc3c(n2)-c2ccccc2CCC3)c1C1CC1,0.961,
O=C(CCc1cnccn1)N1CCCC(CCc2cccc(F)c2)C1 (configuration not stated),0.881,
CN(CC1CCCCO1)C(=O)c1ccc2nc(C3CCCCC3)oc2c1 (configuration not stated),,0.861
Cc1c(C(C)NCc2nccn2C)cnn1-c1cccc(F)c1 (configuration not stated),,1.04
Cc1ccccc1C(=O)Nc1ccnn1C1CCN(C(=O)CCc2c(C)noc2C)CC1,,1.08
CC(C)CN1CCC(C(=O)Nc2cccc(-c3cccc(F)c3)c2)CC1,,0.859
CSc1cccc(CN2CCC(N3CCCC(C(=O)NC4CC4)C3)CC2)c1 (configuration not stated),0.769,
CCN(C)CC1(O)CCCN(Cc2cccc(F)c2F)C1=O (configuration not stated),,0.955
COc1cccc(CN(C)CC2CCCN(CCc3ccc(Cl)cc3)C2)c1OC (configuration not stated),,0.788
CC(=O)c1ccccc1-c1ccc2c(c1)CC(CNC(=O)c1occc1C)O2 (configuration not stated),0.504,
